Laboratory results: patent US20100286090A1, “Treatment of Multiple Myeloma” (BRISTOL-MYERS SQUIBB COMPANY, priority 2005, published 2010)
At least one structure is not confirmed: it was looked up by name or label, or the drawing left a doubt.

What was measured:
[1] = test system: MM cell lines; assay: effect of dasatinib on cell viability of MM cell lines; format: cell-based, human; conditions: in vitro, clinically achievable sub-μM concentrations; including lines resistant to conventional or other novel anti-MM agents
Excerpt: FIG. 1 illustrates results obtained on the effect of dasatinib at varying concentrations on the cell viability of certain MM cell lines.
Described herein are studies on the oral, multi-targeted kinase inhibitor dasatinib (BMS-354825, Bristol-Myers Squibb Co.) which inhibits BCR-ABL, SRC, c-KIT, PDGF-R, and ephrin (EPH) receptor kinases. Although BCR-ABL and c-KIT are not primary oncogenes driving MM proliferation and survival, dasatinib was studied because of (a) emerging data from our laboratory (CS Mitsiades, unpublished observations) on the expression patterns of EPH receptors in MM cell lines and primary tumor specimens; and (b) the roles of PDGF-R and SRC in tumor-microenvironment interactions, e.g., pericyte function in angiogenesis and osteoclast-mediated bone resorption, respectively.
Dasatinib is active against human MM cells which are resistant to conventional or other investigational treatments. […] For those cell lines highly responsive to dasatinib, their IC50 was in a range of concentrations which are deemed clinically achievable levels (based on data derived from the ongoing clinical trials of this compound in other disease setting).

[2] = test system: primary MM tumor cells; assay: in vitro anti-MM activity against primary MM tumor cells from resistant patients; format: cell-based, human; conditions: cells isolated from patients resistant to conventional or more recently introduced therapies
[3] = test system: MM cells co-cultured with BM stromal cells; assay: co-culture of MM cells with bone marrow stromal cells; format: cell-based
[4] = test system: MM-1S cells; assay: caspase-8 activation in MM-1S cells; format: cell-based
[5] = test system: primary MM cells; assay: sensitization of primary MM cells to other anti-myeloma agents; format: cell-based; conditions: in vitro; combined with cytotoxic chemotherapeutics or proteasome inhibitors

Structure (SMILES): Cc1nc(Nc2ncc(C(=O)Nc3c(C)cccc3Cl)s2)cc(N2CCN(CCO)CC2)n1 [dasatinib]
- viability of MM cell lines [1]: significantly suppresses
- in vitro anti-MM activity against primary MM tumor cells [2]: active against drug-resistant primary MM tumor cells
- effect on protective effect of BMSCs on MM cells [3]: overcomes the protective effect
- caspase-8 activation [4]: induces caspase-8 activation
- response of primary MM cells to other anti-myeloma agents [5]: enhances the response
